Data: PubChem BioAssay AID2517 (National Center for Advancing Translational Sciences (NCATS), 2010)
Hit rate of the full screen: of about 350,000 compounds, about 1,200 (0.34%) were called active. This list was built around the results that the source calls inconclusive (neither active nor inactive); the mix of calls is not that of the screen. Calls follow the shape of the dose curve; as a rule, active = well fitted inhibition curve with a large enough effect; inconclusive = small, poorly fitted or top-dose-only effect; inactive = no such curve, though single readings can be large or run the other way. Where the call is inconclusive, the potency comes from a doubtful curve fit.

Protein sequences, listed by entry. Tags and fused reporters are not part of them.
UniProt P27695, whole entry, looked up: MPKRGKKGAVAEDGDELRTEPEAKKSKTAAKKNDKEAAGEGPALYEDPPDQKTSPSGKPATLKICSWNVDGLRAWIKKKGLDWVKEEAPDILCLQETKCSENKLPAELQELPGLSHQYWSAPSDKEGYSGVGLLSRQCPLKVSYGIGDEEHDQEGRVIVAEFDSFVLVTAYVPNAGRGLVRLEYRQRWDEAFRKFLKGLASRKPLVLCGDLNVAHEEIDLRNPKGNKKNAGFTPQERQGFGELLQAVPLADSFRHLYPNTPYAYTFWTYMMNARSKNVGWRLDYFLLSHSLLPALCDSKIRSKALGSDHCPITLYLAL

Molecular target: DNA repair nuclease/redox regulator APEX1 (Homo sapiens) (UniProt P27695)
Experiment: qHTS Assay for Inhibitors of the Human Apurinic/apyrimidinic Endonuclease 1 (APE1); also: nearly all actives have a fitted effect of over 55% in size;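 as to activity change, negative = inhibition: plate controls were vehicle for no effect and reference inhibitor for full effect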
Details: recombinant APE1, TAMRA/BHQ-2 abasic DNA cleavage fluorescence; activity change, negative = inhibition: at 65.8 µM (top of the series)
Method in brief: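 Measures dequenching upon AP-site incision of a 5'-TAMRA/3'-BHQ-2 THF-containing duplex, 50 nM; human APE1 0.75 nM after 15 min room-temperature exposure to compound; kinetic three-point read at one-minute spacing.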
Potency is read from the fitted curve at half-maximal effect.

Compound | Potency | activity change, negative = inhibition
CC1=[N+](C)N(c2ccccc2)C(=O)C1N=Cc1ccc(Cl)cc1 (configuration not stated) | inconclusive: 5.62 µM [inhibitor, full curve, poor fit] | 
COC(=O)c1ccn(CC(=O)NC2CCCCC2)n1 | active: 29.9 µM | 
N#C/C(=C\c1ccc(O)c(O)c1)C(=O)Nc1ccccc1 | inconclusive: 22.4 µM [inhibitor, partial curve, poor fit] | 
CCn1c(SCC(=O)Nc2nccc(C)n2)nc2ccccc21 |  | inactive: -1.87%
COc1cc(-c2nc3ccccn3c2/N=C/c2cc(OC)c(O)cc2Cl)ccc1O | inconclusive: 25.1 µM [inhibitor, partial curve, poor fit] | 
COc1ccc(CCNC(=O)c2c(C)nc3ccccn23)cc1 | inconclusive: 39.8 µM [inhibitor, single point] | 
C=CCn1c(SCC(=O)NCCOC)nc2scc(-c3ccco3)c2c1=O | inconclusive: 39.8 µM [inhibitor, single point] | 
CN(Cc1ccccc1)c1oc(-c2ccco2)nc1C#N | inconclusive: 39.8 µM [inhibitor, single point] | 
CN1Cc2c(C(=O)OC(C)(C)C)ncn2-c2ccsc2C1=O | inconclusive: 39.8 µM [inhibitor, single point] | 
C#Cc1ccc([C@@H]2C=C(C(=O)N3CCN(Cc4ccc5c(c4)OCO5)CC3)O[C@H](OCCCCO)C2)cc1 | inconclusive: 3.16 µM [inhibitor, full curve, poor fit] | 
Cc1nc2ccc(C(=O)O)cc2c2c1CC(C)S2 (configuration not stated) | inconclusive: 56.2 µM [inhibitor, partial curve, poor fit] | 
O=C(O)CC/C(=C\c1ccccc1[N+](=O)[O-])c1nc2ccccc2s1 |  | inactive: 2.54%
Cc1nnc(C)n1/N=C/c1ccc(-c2ccccc2Cl)o1 |  | inactive: -6.55%
COc1cccc(Nc2ncc3nc(-c4cccs4)c(=O)n(Cc4cccs4)c3n2)c1 | inconclusive: 39.8 µM [inhibitor, single point] | 
N#CCCN1CCN(S(=O)(=O)c2ccc3c(c2)OCCCO3)CC1 | inconclusive: 63.1 µM [inhibitor, partial curve, poor fit] | 
CCC(NC(=O)Nc1ccc(O)cc1)(C(F)(F)F)C(F)(F)F | inconclusive: 14.1 µM [inhibitor, partial curve] | 
Cn1cc(Br)c(C(=O)Nc2sc3c(c2C#N)CCC3)n1 |  | inactive: -4.75%
O=C(CCCn1c(=O)[nH]c2ccccc2c1=O)NCCSCc1ccccc1 | inconclusive: 44.7 µM [inhibitor, single point] | 
O=C(/C=C/c1cn(CC(O)CN2CCCCC2)c2ccccc12)c1ccccc1 (configuration not stated) | inconclusive: 4.47 µM [inhibitor, single point] | 
CCCN(Cc1ccccc1)C(=S)Nc1ccc(F)cc1 | inconclusive: 20 µM [inhibitor, partial curve, poor fit] | 
COCC(=O)Nc1ccc(C(=O)Nc2ccccc2Cl)cc1 | inconclusive: 0.005 µM [inhibitor, full curve, poor fit] | 
Cc1ccc(/C=C(\NC(=O)c2ccc(C)cc2)c2nc(=S)[nH][nH]2)cc1 | inconclusive: 44.7 µM [inhibitor, single point] | 
CC(C)(C)C(=O)Cn1c(=N)n(Cc2ccccc2Cl)c2ccccc21 | inconclusive: 44.7 µM [inhibitor, single point] | 

Compound | Potency | activity change, negative = inhibition
CC(NC(=O)COC(=O)c1cc(=O)[nH]c2ccccc12)c1ccccc1 (configuration not stated) | inconclusive: 0.0501 µM [inhibitor, full curve, poor fit] | 
Cc1nnc(SCc2ccc(Cl)cc2)n1CC1CCCO1 (configuration not stated) | inconclusive: 0.224 µM [inhibitor, full curve] | 
CC1=CC2=NC(=O)/C(=C\c3ccc(OC(=O)c4ccco4)cc3)C(=N)N2O1 | inconclusive: 39.8 µM [inhibitor, single point] | 
O=[N+]([O-])c1ccc(C2=Nc3cc(Cl)ccc3OC2)cc1 | inconclusive: 2.24 µM [inhibitor, partial curve] | 
CC(=O)Nc1ccc(S(=O)(=O)N(C)c2ccc(OCC(=O)OCC(=O)Nc3ccc(OC(F)F)cc3)cc2)cc1 | inconclusive: 22.4 µM [inhibitor, partial curve, poor fit] | 
COC(=O)c1nc(NC(=O)C(C)(C)C)n[nH]1 |  | inactive: 1.75%
c1ccc2c(NCCCN3CCOCC3)c3ccccc3nc2c1 | inconclusive: 11.2 µM [inhibitor, partial curve, poor fit] | 
Cc1ccc(CNC(C)c2ccccc2)cc1 (configuration not stated) | inconclusive: 0.0447 µM [inhibitor, full curve] | 
Cc1ccc(C(C[N+](=O)[O-])c2c(C)[nH]n(-c3ccccc3)c2=O)cc1 (configuration not stated) | inconclusive: 8.91 µM [inhibitor, partial curve, poor fit] | 
CCOc1ccc(C(=O)Nc2cccc(C(C)=O)c2)cc1[N+](=O)[O-] | inconclusive: 35.5 µM [inhibitor, single point] | 
Fc1ccc(-c2ccnc3nc(-n4cccc4)nn23)cc1 |  | inactive: 15.9%
O=c1ccc2cc3c([nH]c4ccc(Br)cc43)oc-2c1O | inconclusive: 39.8 µM [inhibitor, single point] | 
O=C(CN(C(=O)Cn1nnc(-c2cccs2)n1)c1ccc2c(c1)OCCO2)NCc1ccccc1 | inconclusive: 17.8 µM [inhibitor, single point] | 
C=CCC(COCc1ccccc1)NS(=O)(=O)c1ccccc1Br (configuration not stated) | inconclusive: 25.1 µM [inhibitor, partial curve, poor fit] | 
CC(C)CC(=O)NC(=S)Nc1cc(C(F)(F)F)ccc1N1CCOCC1 |  | inactive: -1.31%
CCCCC1=CC2=CC(=O)C(C)(OC(=O)CC)C(=O)C2=CN1CCCCO (configuration not stated) | inactive | 
CCOc1ccc(C(=O)c2ccccc2C(=O)O)cc1OCC | inconclusive: 11.2 µM [inhibitor, partial curve] | 
Cc1c(O)c(=O)c2ccccc2n1C | inconclusive: 3.98 µM [inhibitor, single point] | 
C[C@](N)(Cc1ccc(O)cc1)C(=O)O | inactive | 
O=C(NCCN1CCOCC1)NC1(C(F)(F)F)Oc2ccc(Cl)cc2O1 (configuration not stated) |  | inactive: -4.76%
COc1ccc(C2Nc3ccc4ccccc4c3-c3c2c(=O)oc2ccccc32)cc1 (configuration not stated) |  | inactive: -1.64%
O=C(Oc1c(CN2CCOCC2)cc(Cl)c2cccnc12)c1ccccc1Br |  | inactive: -3.61%
Cc1ccc(NC(=O)CN2C(=O)S/C(=C\c3cccn3-c3cccc(C(=O)O)c3)C2=O)cc1C | inconclusive: 3.16 µM [inhibitor, single point] | 

An excerpt from above in order of heavy-atom count, rising.
Compound | Potency | activity change, negative = inhibition
C[C@](N)(Cc1ccc(O)cc1)C(=O)O | inactive | 
COC(=O)c1nc(NC(=O)C(C)(C)C)n[nH]1 |  | inactive: 1.75%
Cc1ccc(CNC(C)c2ccccc2)cc1 (configuration not stated) | inconclusive: 0.0447 µM [inhibitor, full curve] | 
Cc1nc2ccc(C(=O)O)cc2c2c1CC(C)S2 (configuration not stated) | inconclusive: 56.2 µM [inhibitor, partial curve, poor fit] | 
O=[N+]([O-])c1ccc(C2=Nc3cc(Cl)ccc3OC2)cc1 | inconclusive: 2.24 µM [inhibitor, partial curve] | 
CCCN(Cc1ccccc1)C(=S)Nc1ccc(F)cc1 | inconclusive: 20 µM [inhibitor, partial curve, poor fit] | 
CN1Cc2c(C(=O)OC(C)(C)C)ncn2-c2ccsc2C1=O | inconclusive: 39.8 µM [inhibitor, single point] | 
COc1ccc(CCNC(=O)c2c(C)nc3ccccn23)cc1 | inconclusive: 39.8 µM [inhibitor, single point] | 
C=CCC(COCc1ccccc1)NS(=O)(=O)c1ccccc1Br (configuration not stated) | inconclusive: 25.1 µM [inhibitor, partial curve, poor fit] | 
O=C(O)CC/C(=C\c1ccccc1[N+](=O)[O-])c1nc2ccccc2s1 |  | inactive: 2.54%
O=C(NCCN1CCOCC1)NC1(C(F)(F)F)Oc2ccc(Cl)cc2O1 (configuration not stated) |  | inactive: -4.76%
CC1=CC2=NC(=O)/C(=C\c3ccc(OC(=O)c4ccco4)cc3)C(=N)N2O1 | inconclusive: 39.8 µM [inhibitor, single point] | 
O=C(CCCn1c(=O)[nH]c2ccccc2c1=O)NCCSCc1ccccc1 | inconclusive: 44.7 µM [inhibitor, single point] | 
O=C(/C=C/c1cn(CC(O)CN2CCCCC2)c2ccccc12)c1ccccc1 (configuration not stated) | inconclusive: 4.47 µM [inhibitor, single point] | 
COc1cc(-c2nc3ccccn3c2/N=C/c2cc(OC)c(O)cc2Cl)ccc1O | inconclusive: 25.1 µM [inhibitor, partial curve, poor fit] | 
COc1ccc(C2Nc3ccc4ccccc4c3-c3c2c(=O)oc2ccccc32)cc1 (configuration not stated) |  | inactive: -1.64%
C#Cc1ccc([C@@H]2C=C(C(=O)N3CCN(Cc4ccc5c(c4)OCO5)CC3)O[C@H](OCCCCO)C2)cc1 | inconclusive: 3.16 µM [inhibitor, full curve, poor fit] | 
CC(=O)Nc1ccc(S(=O)(=O)N(C)c2ccc(OCC(=O)OCC(=O)Nc3ccc(OC(F)F)cc3)cc2)cc1 | inconclusive: 22.4 µM [inhibitor, partial curve, poor fit] | 

Remaining list, next part

Compound | Potency | activity change, negative = inhibition
CC(C)Cc1nc(SCC(=O)Nc2nnc(CC(C)C)s2)n[nH]1 | inconclusive: 0.0447 µM [inhibitor, full curve, poor fit] | 
CCN1CCN(c2ccc(NC(=O)CCc3c(C)nc4c(-c5ccc(F)cc5)c(C)nn4c3C)cc2)CC1 | inconclusive: 0.0045 µM [inhibitor, full curve, poor fit] | 
CC(=O)Nc1sc2c(c1C(c1ccccn1)N1CCCC1)CCCC2 (configuration not stated) | inconclusive: 12.6 µM [inhibitor, partial curve] | 
O=C(Nc1cccnc1Cl)c1cc([N+](=O)[O-])ccc1Cl | inconclusive: 0.126 µM [inhibitor, full curve, poor fit] | 
O=C(Nc1ccc(Oc2ccccc2)nc1)C1CCCCN1Cc1ccc(OCCO)cc1 (configuration not stated) |  | inactive: 35.3%
CCN(CC)CCCC(C)Nc1ccnc2cc(Cl)ccc12 (configuration not stated) | inconclusive: 44.7 µM [inhibitor, single point] | 
CCOC(=O)c1ccc(NC(=O)Cn2ncc(Cl)c(Cl)c2=O)cc1 |  | inactive: 4.63%
COc1ccc(-n2c(C)cc(/C=C3\C(=N)N4N=C(CC(=O)N5CCOCC5)SC4=NC3=O)c2C)c(OC)c1 |  | inactive: -13.3%
CC(=O)c1ccc(OC2C=CC(C#Cc3ccc(Br)cc3)OC2CO)cc1 (configuration not stated) | inconclusive: 3.16 µM [inhibitor, single point] | 
Cc1cc(C)nc(NC(=O)c2ccc(C)c([N+](=O)[O-])c2)n1 | inconclusive: 0.178 µM [inhibitor, full curve, poor fit] | 
CC(C)c1ccc(NC(=O)N2CCC(c3nc4ccccc4o3)CC2)cc1 | inconclusive: 44.7 µM [inhibitor, single point] | 
O=C1/C(=C\c2cc(Cl)c(O)c(Cl)c2)SC(=S)N1Cc1ccccc1 | inconclusive: 29.9 µM [inhibitor, single point] | 
CCN(CC)S(=O)(=O)c1cc(NC(=O)c2cc(-c3ccccn3)nc3ccccc23)ccc1C | inconclusive: 22.4 µM [inhibitor, single point] | 
O=C(Cc1cnn(-c2ccccc2)c1)c1ccc(O)c(O)c1O | inconclusive: 0.891 µM [inhibitor, full curve] | 
Cc1ccc(S(=O)(=O)N2[C@@H](c3cccc(Cl)c3)C(C(=O)O)=CC[C@H]2c2cccs2)cc1 |  | inactive: 17.1%
CCOC(=O)C1(S(=O)(=O)c2ccccc2)CCN(Cc2ccccc2)CC1 | inconclusive: 44.7 µM [inhibitor, single point] | 
COC(=O)c1sccc1NC(=O)CC1C(=O)NCCN1C(=O)Nc1ccccc1 (configuration not stated) | inconclusive: 3.16 µM [inhibitor, single point] | 
Oc1ccc(NCc2ccc(OCc3ccccc3)cc2)cc1 |  | inactive: -5.21%
C=CCSc1nc2[nH]ncc2c(=O)[nH]1 | inconclusive: 44.7 µM [inhibitor, single point] | 
COc1ccc(C(=O)/C=C/c2cn(CC(O)CN3CCOCC3)c3ccccc23)cc1 (configuration not stated) | inconclusive: 17.8 µM [inhibitor, partial curve, poor fit] | 
CCCCOc1ccc(C(=O)Nc2ccc(C)cc2[N+](=O)[O-])cc1 | inconclusive: 0.0355 µM [inhibitor, full curve] | 
